Measurements reported in patent US12161728.
No constants are given. Whether binding was seen depends on the method and setting. For some assays here: Binding seen in cells or lysates may run through a third protein. Some binding calls cover weakened binding; strength is not graded here. For some assays here: Where a sequence is shown, tags or fusion partners need not be part of it. One block for each binder: values may come before it.

Chains of the proteins cited; added tags and fusions are not shown. Residues count along the entry.
UniProt Q13616: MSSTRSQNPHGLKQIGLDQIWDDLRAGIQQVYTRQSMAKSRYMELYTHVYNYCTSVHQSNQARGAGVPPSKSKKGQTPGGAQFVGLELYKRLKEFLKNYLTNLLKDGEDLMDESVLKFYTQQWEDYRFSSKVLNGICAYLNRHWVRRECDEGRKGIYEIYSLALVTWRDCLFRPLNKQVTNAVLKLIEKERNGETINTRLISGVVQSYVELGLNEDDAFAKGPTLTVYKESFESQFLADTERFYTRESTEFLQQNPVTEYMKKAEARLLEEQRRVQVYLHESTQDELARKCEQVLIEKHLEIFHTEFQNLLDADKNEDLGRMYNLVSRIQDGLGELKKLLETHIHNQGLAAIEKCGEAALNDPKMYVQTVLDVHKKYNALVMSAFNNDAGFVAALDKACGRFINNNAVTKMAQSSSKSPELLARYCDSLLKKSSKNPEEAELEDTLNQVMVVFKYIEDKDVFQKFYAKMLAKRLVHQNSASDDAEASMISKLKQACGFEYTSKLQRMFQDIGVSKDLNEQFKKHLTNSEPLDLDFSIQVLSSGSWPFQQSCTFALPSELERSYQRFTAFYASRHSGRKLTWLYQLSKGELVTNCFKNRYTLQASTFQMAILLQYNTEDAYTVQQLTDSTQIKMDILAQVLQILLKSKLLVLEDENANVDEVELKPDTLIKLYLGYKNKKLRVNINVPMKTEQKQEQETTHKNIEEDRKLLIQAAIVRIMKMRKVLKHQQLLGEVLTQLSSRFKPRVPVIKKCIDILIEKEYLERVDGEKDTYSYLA
UniProt P63208, residues 2-163: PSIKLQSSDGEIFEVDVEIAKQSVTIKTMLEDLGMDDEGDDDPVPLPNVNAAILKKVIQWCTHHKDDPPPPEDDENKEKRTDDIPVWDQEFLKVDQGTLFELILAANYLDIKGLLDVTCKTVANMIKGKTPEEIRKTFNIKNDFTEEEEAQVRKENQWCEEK
UniProt Q13148: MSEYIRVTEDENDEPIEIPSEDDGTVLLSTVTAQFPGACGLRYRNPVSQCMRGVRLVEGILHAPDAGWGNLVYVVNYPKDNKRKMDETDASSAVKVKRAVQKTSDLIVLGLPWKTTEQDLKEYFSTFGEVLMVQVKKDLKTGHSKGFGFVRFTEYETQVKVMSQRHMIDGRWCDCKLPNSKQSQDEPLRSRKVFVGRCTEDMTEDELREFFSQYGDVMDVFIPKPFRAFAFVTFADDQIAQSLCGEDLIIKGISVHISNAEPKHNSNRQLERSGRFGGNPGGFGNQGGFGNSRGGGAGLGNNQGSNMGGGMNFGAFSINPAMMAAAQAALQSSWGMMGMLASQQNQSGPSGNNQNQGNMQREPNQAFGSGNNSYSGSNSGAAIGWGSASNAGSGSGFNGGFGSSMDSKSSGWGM
UniProt Q921F2: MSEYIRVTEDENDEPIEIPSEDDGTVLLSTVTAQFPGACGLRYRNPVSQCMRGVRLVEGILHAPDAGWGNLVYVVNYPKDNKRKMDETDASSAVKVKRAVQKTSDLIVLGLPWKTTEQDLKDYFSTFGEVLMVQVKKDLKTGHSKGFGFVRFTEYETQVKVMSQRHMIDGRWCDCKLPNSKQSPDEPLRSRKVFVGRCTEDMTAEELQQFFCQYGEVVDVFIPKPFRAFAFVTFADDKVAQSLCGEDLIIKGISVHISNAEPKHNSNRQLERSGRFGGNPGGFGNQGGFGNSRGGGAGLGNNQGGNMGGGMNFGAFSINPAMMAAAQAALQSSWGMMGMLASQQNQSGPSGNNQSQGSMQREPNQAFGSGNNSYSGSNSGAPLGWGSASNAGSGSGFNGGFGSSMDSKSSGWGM

Key:
[1] = target: Cul1 (UniProt Q13616); test: proteins common to BioID/MS and IP/MS, HEK293 cells
[2] = target: Skp1 (UniProt P63208); test: as above
[3] = target: endogenous TDP-43 (TAR DNA-binding protein of 43 kDa) in HEK293 / Flp-In T-Rex 293 cells (UniProt Q13148); test: BioID/MS and IP/MS in HEK293 cells, validated by immunoblot
[4] = target: endogenous TDP-43 (TAR DNA-binding protein of 43 kDa) in HEK293 / Flp-In T-Rex 293 cells (UniProt Q13148); test: BioID proximity biotinylation, streptavidin capture, immunoblot
[5] = target: TDP-43-HA (UniProt Q13148); test: co-immunoprecipitation, western blot
[6] = target: TDP-43-HA (UniProt Q13148); test: anti-FLAG M2 co-immunoprecipitation from co-transfected HEK293 cells
[7] = target: endogenous TDP-43 in Neuro2A cells (UniProt Q921F2); test: co-immunoprecipitation, western blot
[8] = target: endogenous TDP-43 in Neuro2A cells (UniProt Q921F2); test: co-immunoprecipitation in Neuro2a cells

binding [1]: binds
binding [2]: binds
binding [3]: binds
binding [4]: binds
B1: FLAG-BirA*-Cyclin F (protein, UniProt P41002 1-786, looked up, not shown: small tags and cut ends)
chain: MGSGGVVHCRCAKCFCYPTKRRIRRRPRNLTILSLPEDVLFHILKWLSVEDILAVRAVHSQLKDLVDNHASVWACASFQELWPSPGNLKLFERAAEKGNFEAAVKLGIAYLYNEGLSVSDEARAEVNGLKASRFFSLAERLNVGAAPFIWLFIRPPWSVSGSCCKAVVHESLRAECQLQRTHKASILHCLGRVLSLFEDEEKQQQAHDLFEEAAHQGCLTSSYLLWESDRRTDVSDPGRCLHSFRKLRDYAAKGCWEAQLSLAKACANANQLGLEVRASSEIVCQLFQASQAVSKQQVFSVQKGLNDTMRYILIDWLVEVATMKDFTSLCLHLTVECVDRYLRRRLVPRYRLQLLGIACMVICTRFISKEILTIREAVWLTDNTYKYEDLVRMMGEIVSALEGKIRVPTVVDYKEVLLTLVPVELRTQHLCSFLCELSLLHTSLSAYAPARLAAAALLLARLTHGQTQPWTTQLWDLTGFSYEDLIPCVLSLHKKCFHDDAPKDYRQVSLTAVKQRFEDKRYGEISQEEVLSYSQLCAALGVTQDSPDPPTFLSTGEIHAFLSSPSGRRTKRKRENSLQEDRGSFVTTPTAELSSQEETLLGSFLDWSLDCCSGYEGDQESEGEKEGDVTAPSGILDVTVVYLNPEQHCCQESSDEEACPEDKGPQDPQALALDTQIPATPGPKPLVRTSREPGKDVTTSGYSSVSTASPTSSVDGGLGALPQPTSVLSLDSDSHTQPCHHQARKSCLQCRPPSPPESSVPQQQVKRINLCIHSEEEDMNLGLVRL

binding [5]: binds
binding [6]: binds
B2: Cyclin F-flag (protein, UniProt P41002 1-786, looked up, not shown: small tags and cut ends)
chain: B1 chain

binding [7]: binds
binding [8]: binds
B3: mCherry-Cyclin F^WT (protein, UniProt P41002 1-786, looked up, not shown: large carriers)
chain: B1 chain
